Experimental data published in the supplement of paper PMC12823440, “Inhibitors supercharge kinase turnover through native proteolytic circuits” (Nature, 2025).
The list shows a part of the results. The calls rarely recur for the same compound in another form.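 Kinases, fused to nanoluciferase, were expressed in K562 cells; luminescence was measured every 4 h from 2 to 18 h as percent of control (DMSO = 100%, positive control = 0%). A time point is decreased if signal falls significantly (2 sigma). Hits were called by the authors by a rule that is not shown; the count of time points alone does not decide it.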

Amino acid sequences for entries named in this document (tags omitted). A change or cut given only in a name is not applied to a line headed by its entry.
UniProt O75460: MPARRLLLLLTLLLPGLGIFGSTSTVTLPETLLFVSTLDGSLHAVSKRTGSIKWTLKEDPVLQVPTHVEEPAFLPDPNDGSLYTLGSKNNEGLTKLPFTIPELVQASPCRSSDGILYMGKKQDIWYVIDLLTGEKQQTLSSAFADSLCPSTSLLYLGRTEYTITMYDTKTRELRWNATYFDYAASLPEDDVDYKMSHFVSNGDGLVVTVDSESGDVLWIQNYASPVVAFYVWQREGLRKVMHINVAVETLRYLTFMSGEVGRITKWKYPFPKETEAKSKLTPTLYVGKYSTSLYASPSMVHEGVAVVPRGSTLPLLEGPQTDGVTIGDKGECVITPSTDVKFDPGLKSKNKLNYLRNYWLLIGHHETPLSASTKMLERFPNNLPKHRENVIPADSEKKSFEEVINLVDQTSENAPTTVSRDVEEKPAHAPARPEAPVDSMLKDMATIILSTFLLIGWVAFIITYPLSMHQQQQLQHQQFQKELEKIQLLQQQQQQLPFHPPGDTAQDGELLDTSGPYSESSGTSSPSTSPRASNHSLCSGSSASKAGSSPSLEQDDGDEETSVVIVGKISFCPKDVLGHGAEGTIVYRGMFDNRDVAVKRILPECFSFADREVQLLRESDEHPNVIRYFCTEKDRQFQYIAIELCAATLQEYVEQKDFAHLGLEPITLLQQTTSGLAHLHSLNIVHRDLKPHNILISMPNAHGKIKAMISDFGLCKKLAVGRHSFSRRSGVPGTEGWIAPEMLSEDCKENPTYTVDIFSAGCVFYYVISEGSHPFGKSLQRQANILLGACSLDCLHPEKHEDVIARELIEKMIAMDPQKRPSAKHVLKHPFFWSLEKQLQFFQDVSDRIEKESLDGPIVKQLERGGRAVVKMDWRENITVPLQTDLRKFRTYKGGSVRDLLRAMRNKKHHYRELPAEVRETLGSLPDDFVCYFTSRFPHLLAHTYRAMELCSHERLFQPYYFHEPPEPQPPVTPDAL
UniProt P21802, whole entry, looked up: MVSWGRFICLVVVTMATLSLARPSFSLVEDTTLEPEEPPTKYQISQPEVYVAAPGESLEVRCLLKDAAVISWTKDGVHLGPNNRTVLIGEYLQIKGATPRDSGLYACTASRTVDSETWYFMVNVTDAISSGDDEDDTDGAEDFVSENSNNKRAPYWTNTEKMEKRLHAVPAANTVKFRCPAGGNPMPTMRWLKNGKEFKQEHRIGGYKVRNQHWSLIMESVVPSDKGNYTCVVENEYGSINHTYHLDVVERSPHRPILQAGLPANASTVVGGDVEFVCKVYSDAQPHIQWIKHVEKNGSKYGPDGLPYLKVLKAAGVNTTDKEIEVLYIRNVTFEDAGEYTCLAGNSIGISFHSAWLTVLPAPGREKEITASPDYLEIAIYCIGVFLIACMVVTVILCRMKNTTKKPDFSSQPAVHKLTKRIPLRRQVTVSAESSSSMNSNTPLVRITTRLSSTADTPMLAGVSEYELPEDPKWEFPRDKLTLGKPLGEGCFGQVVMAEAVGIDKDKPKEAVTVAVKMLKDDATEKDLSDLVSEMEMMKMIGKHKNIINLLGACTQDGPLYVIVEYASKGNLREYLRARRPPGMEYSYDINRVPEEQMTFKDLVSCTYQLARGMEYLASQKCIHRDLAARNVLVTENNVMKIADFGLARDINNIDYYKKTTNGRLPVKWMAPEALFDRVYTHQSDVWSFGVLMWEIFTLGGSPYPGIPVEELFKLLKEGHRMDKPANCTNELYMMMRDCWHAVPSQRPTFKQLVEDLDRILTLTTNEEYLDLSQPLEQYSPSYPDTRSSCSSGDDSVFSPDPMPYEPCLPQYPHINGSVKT
UniProt P22607, whole entry, looked up: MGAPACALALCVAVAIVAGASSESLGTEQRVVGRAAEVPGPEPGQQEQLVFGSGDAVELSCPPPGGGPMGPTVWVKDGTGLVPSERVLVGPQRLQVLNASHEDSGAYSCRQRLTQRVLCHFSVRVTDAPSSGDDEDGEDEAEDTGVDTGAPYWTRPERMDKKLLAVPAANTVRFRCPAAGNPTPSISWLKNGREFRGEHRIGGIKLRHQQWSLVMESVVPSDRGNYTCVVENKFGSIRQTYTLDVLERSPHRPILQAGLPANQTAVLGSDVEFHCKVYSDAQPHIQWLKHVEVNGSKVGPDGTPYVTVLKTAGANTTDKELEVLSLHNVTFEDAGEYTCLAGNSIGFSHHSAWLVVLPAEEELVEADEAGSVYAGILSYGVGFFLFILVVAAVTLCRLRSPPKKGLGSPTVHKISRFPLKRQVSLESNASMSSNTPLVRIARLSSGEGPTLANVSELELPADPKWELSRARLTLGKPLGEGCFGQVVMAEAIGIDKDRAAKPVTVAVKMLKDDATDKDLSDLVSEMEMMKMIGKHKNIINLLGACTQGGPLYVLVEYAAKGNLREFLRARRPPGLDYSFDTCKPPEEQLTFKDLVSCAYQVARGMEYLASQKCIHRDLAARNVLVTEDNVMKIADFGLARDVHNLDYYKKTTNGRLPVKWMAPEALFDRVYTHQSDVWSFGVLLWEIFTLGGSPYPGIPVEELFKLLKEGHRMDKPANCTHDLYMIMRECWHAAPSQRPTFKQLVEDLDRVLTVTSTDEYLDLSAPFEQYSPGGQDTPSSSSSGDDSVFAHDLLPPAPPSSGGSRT
UniProt P06241, whole entry, looked up: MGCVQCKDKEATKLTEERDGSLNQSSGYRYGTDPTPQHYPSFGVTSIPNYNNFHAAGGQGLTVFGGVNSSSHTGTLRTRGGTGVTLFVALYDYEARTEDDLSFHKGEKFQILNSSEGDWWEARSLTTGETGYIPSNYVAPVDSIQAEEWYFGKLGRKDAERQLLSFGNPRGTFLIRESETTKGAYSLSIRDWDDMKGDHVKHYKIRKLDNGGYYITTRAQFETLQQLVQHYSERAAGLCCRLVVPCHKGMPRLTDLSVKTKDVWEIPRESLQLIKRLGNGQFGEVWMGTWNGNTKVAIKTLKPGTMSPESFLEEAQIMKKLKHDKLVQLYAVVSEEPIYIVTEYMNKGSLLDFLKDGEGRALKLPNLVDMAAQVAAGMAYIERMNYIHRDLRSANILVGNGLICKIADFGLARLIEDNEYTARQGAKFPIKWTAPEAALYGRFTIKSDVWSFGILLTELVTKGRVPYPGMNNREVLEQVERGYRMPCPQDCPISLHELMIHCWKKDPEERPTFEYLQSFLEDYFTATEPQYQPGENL
UniProt P14616: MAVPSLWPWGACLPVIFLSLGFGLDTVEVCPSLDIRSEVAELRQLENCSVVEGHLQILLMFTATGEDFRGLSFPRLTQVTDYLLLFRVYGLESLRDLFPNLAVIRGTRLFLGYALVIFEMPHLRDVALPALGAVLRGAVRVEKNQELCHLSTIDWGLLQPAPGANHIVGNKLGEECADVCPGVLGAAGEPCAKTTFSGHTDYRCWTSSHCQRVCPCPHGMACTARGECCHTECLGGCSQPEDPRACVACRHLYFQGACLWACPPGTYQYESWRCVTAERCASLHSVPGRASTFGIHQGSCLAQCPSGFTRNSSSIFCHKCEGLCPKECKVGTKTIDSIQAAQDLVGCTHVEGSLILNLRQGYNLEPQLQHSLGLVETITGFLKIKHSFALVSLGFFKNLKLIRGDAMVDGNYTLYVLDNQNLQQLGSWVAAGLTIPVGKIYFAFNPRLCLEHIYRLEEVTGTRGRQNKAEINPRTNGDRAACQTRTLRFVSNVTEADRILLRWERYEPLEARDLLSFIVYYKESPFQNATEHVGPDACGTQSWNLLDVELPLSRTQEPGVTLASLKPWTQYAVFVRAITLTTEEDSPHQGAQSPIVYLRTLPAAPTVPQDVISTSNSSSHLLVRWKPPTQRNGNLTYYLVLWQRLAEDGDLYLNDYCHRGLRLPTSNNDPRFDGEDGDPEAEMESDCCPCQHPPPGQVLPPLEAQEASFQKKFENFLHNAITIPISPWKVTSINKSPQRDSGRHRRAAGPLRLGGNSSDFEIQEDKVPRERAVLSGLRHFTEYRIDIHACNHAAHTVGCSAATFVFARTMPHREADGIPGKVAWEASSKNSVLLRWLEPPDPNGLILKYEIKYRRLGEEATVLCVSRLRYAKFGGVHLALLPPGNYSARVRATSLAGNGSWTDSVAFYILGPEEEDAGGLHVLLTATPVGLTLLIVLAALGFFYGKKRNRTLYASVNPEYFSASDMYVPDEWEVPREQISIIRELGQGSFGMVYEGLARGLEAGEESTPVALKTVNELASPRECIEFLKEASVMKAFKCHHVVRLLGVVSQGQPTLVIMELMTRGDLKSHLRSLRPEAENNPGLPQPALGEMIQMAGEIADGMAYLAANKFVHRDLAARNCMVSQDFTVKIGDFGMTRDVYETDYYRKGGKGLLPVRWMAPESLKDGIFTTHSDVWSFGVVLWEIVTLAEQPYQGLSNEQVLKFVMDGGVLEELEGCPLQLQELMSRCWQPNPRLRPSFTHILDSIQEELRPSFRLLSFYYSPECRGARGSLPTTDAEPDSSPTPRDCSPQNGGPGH
UniProt Q9Y616: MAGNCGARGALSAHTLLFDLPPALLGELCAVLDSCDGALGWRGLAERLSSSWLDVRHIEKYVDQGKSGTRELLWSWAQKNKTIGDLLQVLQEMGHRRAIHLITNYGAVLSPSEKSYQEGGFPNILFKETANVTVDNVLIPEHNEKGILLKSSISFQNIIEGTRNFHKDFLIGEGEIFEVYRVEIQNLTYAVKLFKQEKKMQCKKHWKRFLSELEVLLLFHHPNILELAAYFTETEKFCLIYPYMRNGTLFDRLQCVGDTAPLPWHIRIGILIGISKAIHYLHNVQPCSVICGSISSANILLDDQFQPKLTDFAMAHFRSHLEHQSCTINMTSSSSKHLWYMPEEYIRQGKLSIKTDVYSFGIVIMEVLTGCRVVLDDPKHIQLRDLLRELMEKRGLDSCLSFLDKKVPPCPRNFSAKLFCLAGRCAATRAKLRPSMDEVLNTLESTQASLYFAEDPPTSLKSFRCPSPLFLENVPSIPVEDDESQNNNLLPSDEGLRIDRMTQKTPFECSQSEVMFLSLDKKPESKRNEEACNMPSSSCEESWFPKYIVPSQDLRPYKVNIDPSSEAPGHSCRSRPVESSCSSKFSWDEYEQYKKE
UniProt P53667: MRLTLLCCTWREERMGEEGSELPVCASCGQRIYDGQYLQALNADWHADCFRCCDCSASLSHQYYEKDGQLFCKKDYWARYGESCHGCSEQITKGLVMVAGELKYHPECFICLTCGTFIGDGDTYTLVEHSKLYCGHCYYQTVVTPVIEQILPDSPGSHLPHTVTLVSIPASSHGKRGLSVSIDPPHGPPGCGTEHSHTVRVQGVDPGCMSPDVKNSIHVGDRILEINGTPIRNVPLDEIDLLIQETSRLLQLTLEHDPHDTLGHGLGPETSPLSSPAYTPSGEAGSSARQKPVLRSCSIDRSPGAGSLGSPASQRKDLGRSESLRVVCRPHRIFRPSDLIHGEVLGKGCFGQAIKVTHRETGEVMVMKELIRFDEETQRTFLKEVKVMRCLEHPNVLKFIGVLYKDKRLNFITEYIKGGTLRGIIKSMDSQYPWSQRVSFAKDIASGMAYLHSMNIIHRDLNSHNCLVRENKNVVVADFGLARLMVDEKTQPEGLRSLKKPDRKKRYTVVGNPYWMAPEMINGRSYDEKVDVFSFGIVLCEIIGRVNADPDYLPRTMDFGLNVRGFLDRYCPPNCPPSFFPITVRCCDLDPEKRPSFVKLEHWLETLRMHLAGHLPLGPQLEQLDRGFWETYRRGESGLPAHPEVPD
UniProt P53671: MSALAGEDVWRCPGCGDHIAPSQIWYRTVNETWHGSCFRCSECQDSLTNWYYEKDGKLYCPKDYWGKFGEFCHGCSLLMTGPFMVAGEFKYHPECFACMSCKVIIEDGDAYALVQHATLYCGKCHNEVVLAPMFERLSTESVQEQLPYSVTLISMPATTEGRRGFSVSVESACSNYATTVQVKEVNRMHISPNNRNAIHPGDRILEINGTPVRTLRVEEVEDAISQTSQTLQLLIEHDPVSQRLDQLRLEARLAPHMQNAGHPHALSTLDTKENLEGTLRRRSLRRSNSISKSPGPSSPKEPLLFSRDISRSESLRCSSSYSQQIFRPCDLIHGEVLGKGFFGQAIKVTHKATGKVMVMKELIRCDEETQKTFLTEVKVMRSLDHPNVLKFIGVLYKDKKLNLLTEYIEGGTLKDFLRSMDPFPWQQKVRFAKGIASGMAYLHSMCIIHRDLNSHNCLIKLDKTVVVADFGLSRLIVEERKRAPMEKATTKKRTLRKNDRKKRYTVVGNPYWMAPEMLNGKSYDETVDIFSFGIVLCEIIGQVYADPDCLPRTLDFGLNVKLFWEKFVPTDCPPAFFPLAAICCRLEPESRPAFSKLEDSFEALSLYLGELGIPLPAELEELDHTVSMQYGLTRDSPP

Tests used:
Test in all cases: kinase-Nluc reporter destabilization hit call (1 = scored as downregulated) (binary); higher = compound decreases kinase abundance
Details in all cases: K562, 2-18 h
ERN1 = ERN1 (UniProt O75460)
FGFR1 = FGFR1 (UniProt P11362)
FGFR2 = FGFR2 (UniProt P21802)
FGFR3 = FGFR3 (UniProt P22607)
FGR = FGR (UniProt P09769)
FLT3 = FLT3 (UniProt P36888)
FYN = FYN (UniProt P06241)
GSK3A = GSK3A (UniProt P49840)
HER2 = HER2 (UniProt P04626)
INSRR = INSRR (UniProt P14616)
IRAK3 = IRAK3 (UniProt Q9Y616)
JAK1 = JAK1 (UniProt P23458)
LCK = LCK (UniProt P06239)
LIMK1 = LIMK1 (UniProt P53667)
LIMK2 = LIMK2 (UniProt P53671)
LMTK2 = LMTK2 (UniProt Q8IWU2)
LYN = LYN (UniProt P07948)
MAP2K1 = MAP2K1 (UniProt Q02750)
MAP2K2 = MAP2K2 (UniProt P36507)
MAP4K2 = MAP4K2 (UniProt Q12851)

Measured: kinase-Nluc reporter destabilization hit call

NC(=O)c1c(OCc2c(F)cc(Br)cc2F)nsc1NC(=O)NCCCCN1CCCC1
inactive: ERN1; 2.5 µM 0 | FGFR1; 2.5 µM 0 | FGFR2; 2.5 µM 0 | FGFR3; 2.5 µM 0 | FGR; 2.5 µM 0 | FLT3; 2.5 µM 0 | FYN; 2.5 µM 0 | GSK3A; 2.5 µM 0 | HER2; 2.5 µM 0 | INSRR; 2.5 µM 0 | IRAK3; 2.5 µM 0 | JAK1; 2.5 µM 0 | LCK; 2.5 µM 0 | LIMK1; 2.5 µM 0 | LIMK2; 2.5 µM 0 | LMTK2; 2.5 µM 0 | LYN; 2.5 µM 0 | MAP2K1; 2.5 µM 0 | MAP2K2; 2.5 µM 0 | MAP4K2; 2.5 µM 0

Cc1ccc2c(=O)c3cccc(CC(=O)O)c3oc2c1C [Vadimezan]
inactive: ERN1; 10 µM 0 | FGFR1; 10 µM 0 | FGFR2; 10 µM 0 | FGFR3; 10 µM 0 | FGR; 10 µM 0 | FLT3; 10 µM 0 | FYN; 10 µM 0 | GSK3A; 10 µM 0 | HER2; 10 µM 0 | INSRR; 10 µM 0 | IRAK3; 10 µM 0 | JAK1; 10 µM 0 | LCK; 10 µM 0 | LIMK1; 10 µM 0 | LIMK2; 10 µM 0 | LMTK2; 10 µM 0 | LYN; 10 µM 0 | MAP2K1; 10 µM 0 | MAP2K2; 10 µM 0 | MAP4K2; 10 µM 0

CCCCCCCCCCCCc1ccc(S(=O)(=O)Nc2nncs2)cc1
inactive: ERN1; 10 µM 0 | FGFR1; 10 µM 0 | FGFR2; 10 µM 0 | FGFR3; 10 µM 0 | FGR; 10 µM 0 | FLT3; 10 µM 0 | FYN; 10 µM 0 | GSK3A; 10 µM 0 | HER2; 10 µM 0 | INSRR; 10 µM 0 | IRAK3; 10 µM 0 | JAK1; 10 µM 0 | LCK; 10 µM 0 | LIMK1; 10 µM 0 | LIMK2; 10 µM 0 | LMTK2; 10 µM 0 | LYN; 10 µM 0 | MAP2K1; 10 µM 0 | MAP2K2; 10 µM 0 | MAP4K2; 10 µM 0

O=c1ncn2nc(Sc3ccc(F)cc3F)ccc2c1-c1c(Cl)cccc1Cl [Neflamapimod]
inactive: ERN1; 10 µM 0 | FGFR1; 10 µM 0 | FGFR2; 10 µM 0 | FGFR3; 10 µM 0 | FGR; 10 µM 0 | FLT3; 10 µM 0 | FYN; 10 µM 0 | GSK3A; 10 µM 0 | HER2; 10 µM 0 | INSRR; 10 µM 0 | IRAK3; 10 µM 0 | JAK1; 10 µM 0 | LCK; 10 µM 0 | LIMK1; 10 µM 0 | LIMK2; 10 µM 0 | LMTK2; 10 µM 0 | LYN; 10 µM 0 | MAP2K1; 10 µM 0 | MAP2K2; 10 µM 0 | MAP4K2; 10 µM 0

CC[C@@H]1C(=O)N(C)c2cnc(Nc3ccc(C(=O)NC4CCN(C)CC4)cc3OC)nc2N1C1CCCC1
inactive: ERN1; 10 µM 0 | FGFR1; 10 µM 0 | FGFR2; 10 µM 0 | FGFR3; 10 µM 0 | FGR; 10 µM 0 | FLT3; 10 µM 0 | FYN; 10 µM 0 | GSK3A; 10 µM 0 | HER2; 10 µM 0 | INSRR; 10 µM 0 | IRAK3; 10 µM 0 | JAK1; 10 µM 0 | LCK; 10 µM 0 | LIMK1; 10 µM 0 | LIMK2; 10 µM 0 | LMTK2; 10 µM 0 | LYN; 10 µM 0 | MAP2K1; 10 µM 0 | MAP2K2; 10 µM 0 | MAP4K2; 10 µM 0
